Among the data in publication PMC10758103 are binding values, retold here.

By UniProt entry, the sequences of proteins in these tests, tags left out. Residues count along the entry.
UniProt Q07021, residues 74-282: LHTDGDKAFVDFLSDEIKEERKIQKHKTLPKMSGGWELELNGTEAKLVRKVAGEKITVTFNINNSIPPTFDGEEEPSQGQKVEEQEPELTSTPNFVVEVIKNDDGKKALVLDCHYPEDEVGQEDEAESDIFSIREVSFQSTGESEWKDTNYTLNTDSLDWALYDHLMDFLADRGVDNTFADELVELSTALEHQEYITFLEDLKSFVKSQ

This assay deals with p32 (endogenous) (human (endogenous in HEK-293T, ACHN and 786-O)) (UniProt Q07021). Put plainly: affinity purification with mass spectrometry; immunoprecipitation with p32 antibody from mitochondrial extracts of HEK-293T cells, mass spectrometry.

No constants are given. Whether binding was seen depends on the method and setting. In cells and extracts the contact can be indirect. A yes stands for co-enrichment or nearness to the bait. Other partners may have been found.

B1: Dihydrolipoyllysine-residue acetyltransferase component of pyruvate dehydrogenase complex (DLAT), endogenous (protein, UniProt P10515 87-647)
chain: SLPPHQKVPLPSLSPTMQAGTIARWEKKEGDKINEGDLIAEVETDKATVGFESLEECYMAKILVAEGTRDVPIGAIICITVGKPEDIEAFKNYTLDSSAAPTPQAAPAPTPAATASPPTPSAQAPGSSYPPHMQVLLPALSPTMTMGTVQRWEKKVGEKLSEGDLLAEIETDKATIGFEVQEEGYLAKILVPEGTRDVPLGTPLCIIVEKEADISAFADYRPTEVTDLKPQVPPPTPPPVAAVPPTPQPLAPTPSAPCPATPAGPKGRVFVSPLAKKLAVEKGIDLTQVKGTGPDGRITKKDIDSFVPSKVAPAPAAVVPPTGPGMAPVPTGVFTDIPISNIRRVIAQRLMQSKQTIPHYYLSIDVNMGEVLLVRKELNKILEGRSKISVNDFIIKASALACLKVPEANSSWMDTVIRQNHVVDVSVAVSTPAGLITPIVFNAHIKGVETIANDVVSLATKAREGKLQPHEFQGGTFTISNLGMFGIKNFSAIINPPQACILAIGASEDKLVPADNEKGFDVASMMSVTLSCDHRVVDGAVGAQWLAEFRKYLEKPITMLL
As to B1, the binding result is recorded as “binds”.
